Experimental data reported in patent US20150110766A1 (UNIVERSITY ULM, published 2015).
No constants are given. Whether binding was seen depends on the method and setting. A result given as binding can be weak or reduced; the word gives no strength.

Target: iC3b
Assay: SPR, analyte over iC3b surface

binding: binds
B1: mini-FH (designed binder)
chain: EDCNELPPRRNTEILTGSWSDQTYPEGTQAIYKCRPGYRSLGNIIMVCRKGEWVALNPLRKCQKRPCGHPGDTPFGTFTLTGGNVFEYGVKAVYTCNEGYQLLGEINYRECDTDGWTNDIPICEVVKCLPVTAPENGKIVSSAMEPDREYHFGQAVRFVCNSGYKIEGDEEMHCSDDGFWSKEKPKCVEISCKSPDVINGSPISQKIIYKENERFQYKCNMGYEYSERGDAVCTESGWRPLPSCEEAGGGGGGGGGGGGGKCGPPPPIDNGDITSFPLSVYAPASSVEYQCQNLYQLEGNKRITCRNGQWSEPPKCLHPCVISREIMENYNIALRWTAKQKLYSRTGESVEFVCKRGYRLSSRSHTLRTTCWDGKLEYPTCAKR
